Experimental data: patent publication US5459236A (Ferring AB, priority 1990, dated 1995)
Strings that start with PEPTIDE1 are HELM notation: dots part the residues, brackets hold end groups and non-standard residues.

assay: general procedure: Boc solid-phase peptide synthesis; 4-methylbenzhydrylamine resin, theoretical loading 0.65 meq/g (Peninsula Laboratories Inc.); conditions: late stage modification step, 223 nm

Substance	final HPLC purity [%]
PEPTIDE1{[Hmp].F.I.[Hci].N.C.P.[Dab].G.[am]}|PEPTIDE2{[Abu]}$PEPTIDE1,PEPTIDE1,1:R3-6:R3|PEPTIDE1,PEPTIDE2,8:R3-1:R2$$$V2.0	99.5
PEPTIDE1{[Hmp].F.I.[Hgn].N.C.P.[Dab].G.[am]}|PEPTIDE2{A}$PEPTIDE1,PEPTIDE1,1:R3-6:R3|PEPTIDE1,PEPTIDE2,8:R3-1:R2$$$V2.0	99.8
PEPTIDE1{[Hmp].F.I.[Hgn].N.C.P.[Dab].G.[am]}|PEPTIDE2{[Abu]}$PEPTIDE1,PEPTIDE1,1:R3-6:R3|PEPTIDE1,PEPTIDE2,8:R3-1:R2$$$V2.0	99.5

same assay, conditions: whole synthesis, 223 nm

Substance	final HPLC purity [%]
PEPTIDE1{[Hmp].F.I.[Hci].N.C.P.[Dab].G.[am]}$PEPTIDE1,PEPTIDE1,1:R3-6:R3$$$V2.0	98.5
PEPTIDE1{[Hmp].F.I.[Hgn].N.C.P.[Dab].G.[am]}$PEPTIDE1,PEPTIDE1,1:R3-6:R3$$$V2.0	99.5
PEPTIDE1{[Hmp].Y.I.[Hgn].N.C.P.[Dab].G.[am]}$PEPTIDE1,PEPTIDE1,1:R3-6:R3$$$V2.0	>99
PEPTIDE1{[Hmp].Y.I.[Hgn].N.C.P.[Orn].G.[am]}$PEPTIDE1,PEPTIDE1,1:R3-6:R3$$$V2.0	98.5
